No constants are given. Whether binding was seen depends on the method and setting. Binding seen in cells or lysates may run through a third protein. Here binding means that the protein was enriched with, or labelled near, the bait; the list need not be complete. Tags and fused reporters may be left off the sequences shown.
T1: Smn-GFP (Drosophila Smn with eGFP fused to its C-terminal end) (Drosophila melanogaster) (UniProt Q9VV74)
T1 sequence: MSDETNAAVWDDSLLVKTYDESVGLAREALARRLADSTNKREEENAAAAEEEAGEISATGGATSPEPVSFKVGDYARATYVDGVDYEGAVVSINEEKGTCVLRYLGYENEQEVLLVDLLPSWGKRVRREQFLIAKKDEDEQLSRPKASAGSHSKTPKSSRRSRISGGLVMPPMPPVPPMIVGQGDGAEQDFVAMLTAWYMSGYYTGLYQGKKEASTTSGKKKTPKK

B1: Gem3 (Drosophila Gemin3), endogenous (protein, UniProt Q9V3C4 1-1028)
chain: MEREIAHSLAGGEERSSDVAPGQVKTFEELRLYRNLLNGLKRNNFVTPTKIQAAAIPMALAKMDLIIQSKSGTGKTLIYVIAVVQSFNPNINQPHAMIVVPTRELAIQVQDTFFHLCKSFRDFKCSAFIGGTDVAKDRKRMNESRVIIGTPGRLLHLYENRVFDVSKLRLLVLDEADQLYQTKSLQHTVSKLIEAMPKNRQIIACSATYDQNLDERLAKVMDKPMLISNSERATVLLGIRQFVYELPQQNNSVEEMRLKLQILGQIFNQLPYEQAIIFASSQMRADSYKNYLTASGIDCHLISGAMEQSERLHVFEGYRNFTMRILVATDLMARGVDSPHANLVINIDPPQDHVTYLHRIGRAGRFGSKGIAITFIASKKESQRFREMSKKIATAWSVLEFPKEPMPNEFNFWDFEKYNFDYYIKEENPLQEMPMPIKENRSKENVDASSVDLENLQKDQDGKRRDPDKLPVALENVETQKELELENLPESSHNNKNLRVKEKEIVRQGKLKETNSKAGGSKTNKTERRKKSNTPSKLQKQITEVQQTPEITVNKYYMQEDIQRTADGKEYHPVNGAGNHQVPSKSNQKPVEFISPELTPTLTPLELTQEPSPTTVTPPAPPANSINNKTYCLAAPTQTSSMTIQNMVISNTVDDASSISSDSMVVCGYHSDRSYDTYYATSDEEEIWNRLMSKQRRQLKSKRGHGKRRVILYKKVFPKLKANVKRKLKKRMSSSCRSKKAHHLRKRHVYKNISLLPHMNLCHLLQKFTNQERFLKRLHKYAKNQFIDNARVGFLLDKLYKSILEMYYNSAKERKKHFKEAMKESLKSIDNYESQESSESEEEEEEEKDLKNKLSVHVTNQMDIPPMPQAAVEIGSGSESDTEDSQEYGEGEEIIVDDEDDGSDGGPNSSSGFVESQESVSSGIDTSVYETESTGASGNNSSAFFISDDESDTESLTDSEAGSNVSATGSSSQRSSVASSTYESSDDDSVTVTNVSSMQNAQSLWLQTFNMQYQFIASHVAKNLQNYY
B2: Gem4a (Glos or CG2941), endogenous (protein, UniProt Q9W4N9 1-911)
chain: MITAKKHPLDNCQLFVQLKKLFHDYNEKVQRLKDMIYWSGNDEHIAKICDQVTDLLVEHDLIIQPPDTMDPCAMNHLRGLLVYLVLNTAHDDIQCESQWSANVMHLCNQLPPIPLFLTIAIAVNCCLMEPLEEFLACGPRWLTIQYFEAFNEALSVINSDCVETLPLLSAALRAAGRAIVNCNLPAENKQLLRQIACMEHRHILDSKQRLHTLPRPSTRKIYLAKAMDHLIEVLLYTLNDPLKREKPNCFAVYSQITEDISDSNSSDPMPDLRHFAQILLDVLQRIFQLVSVDTYMYWHEMKSKSALYNCQELICRQTAELLKVLQSDKLLGEHPVCKQMQSFADAAKTLEQRVAEMRIGELLAFIDSGMATNEELLAGLDNLFSRFIAFGSDECLETMANHLIMLTKKHAQIILSFLGQVVESEMVVEDEGISVTEVNQGDDEDETSSNDDYEELLSLVLRPLFMQLNVEDKMEVLLLRDEQNVTQGFNFKAPDHRERRIRFFNQLDYNKRFPITEFLVLCFENARQTWIDFSHLGVTHTRFSKLFWHIAQSCPKHAAFHISACADNILVNEQLLQKPYALQFTLYLYGHRQILNGLYTSARQLCVSLKDGRCPYGEDELRQAQNRFLDACAYGLAKFIEPMNLPSLQLILKLLKQISLGESNLITRGTAELNALEKEHPKLENGDDAPAVKVAKHYTYLHASLPEWRLKHWKLISHVMKTIDALRWDLATFEDFRVDNLELAVWYWQDGLSHLTFLGTEFRQRILNQVSKLKHKDFWIIYLKEDTLKDTRSFLKLLTQSSAQEANDLFNKLLKKRADCAVMGDLSDAVVKVNSESAFMAFRFLFREYLIAFRSHAKHNKTITKRQHWDHLMAVVAKAPFSIRNEIMELASKAFAVRFGINIQEQQAAKC
B3: Gem4b (CG32786), endogenous (protein, UniProt Q8IRT0 1-911)
chain: MITAEKHPLDNCQLFVQLKKIFHDNNEQAKCLKDMIYWSGNDEHIEKICDQVTDLLEEHDLIIQPPDTMDPFAMNQLRGLLVYLVLNTAHDYFLCKSQWSANVMHLCNQLPPIPLFLTIAIAVNCCLMEPLEEFLACGPRWLTIQYFEAFNEALSVINSDCVETLPLLSAALRAAGRAIVNCNLPAENKQLLRQIACMEHRHILDSKQRLHTLPRPSTRKIYLAKAMDHLIEVLLYTLNDPLKREKPNCFAVYSQITEDISDSNSSDPMPDLRHFAQILLDVLQRIFQLVSVDTYMYWHEMKSKSALYNCQELICRQTAELLKVLQSDKLLGEHPVCKQMQSFADAAKTLEQRVAEMRMGELLVFLDSGMATDEELLAGLDNLFSRFIAFGNDECVETMANHLIMLTKKHAQIILSFLGQVVESEMVVEDEGISVTEVNQGDDEDETSSNDDYEELLSLVLRPLFMQLNVEDKMEVLLLRDEQNVTQGFNFKAPDHRERRIRFFNQLDYNKRFPITKFLVLCFENARQTWIDFSHLGVTHTRFSKLFWHIAQSCPKHAAFHISACADNILVNEQLLQKPYALQFTLYLYGHRQILNGLYTSARQLCVSLKDGRCPYGEDELRQAQNRFLDACAYGLAKFIEPMNLPSLQLILKLLKQISLGESNLITRGTAELNALEKEHPKLENGDDAPAVKVAKHYTYLNASLPEWRLKHWKLISHVMKTIDALRWDLATFEDFRVDNLELAVWYWQDGLSHLTFLGTECRQRILNQVNSLKHKGFWLIYLKEDTLKDTRSFLKLLTQSSAQEANDLFNKLLKKRADCAVMGDLSDAVVKVNSESAFMAFRFLFREYLIAFRSHAKHNKTITKRQHWDHLMAVVAKAPFSIRNEIMKLASKAFAVRFGINIQEQQAAKC
B4: Cap binding protein (Cbp80), endogenous (protein, UniProt Q7K4N3 1-800)
chain: MSRRRAHDTEDEGYDHRRNKRRRVSENQEIEDRLESLILRVGERSTSSVESNLEGLVSVLEADLGTFRLKILRILSDCAVRMPEKCTVYTTLVGLLNAKNYKFGGEFVDHMVKTFKESLKMCRWDAARYSLRFLADLVNCHVISATSLLQLLDTMIDVSNEDTVPQVRRDWFVFAVLSTLPWVGRDLYEKKESALESLLLRIEVYLNKRSKKHHNALRVWSSDAPHPQEEYLDCLWAQIRKLRQDNWAEKHIPRPYLVFDSILCEALQHNLPTIVPPPHHDNFEYPMPWVVYRMFDYTDCPDGPNLPGAHSIERFLIEEHLHHIIETYHHERKDCAAQLLSFPYKHKIPLEYCIVEVVFAELFHMPTPRYLDICYGSILIELCKLQPATLPQVLAQATEILFMRIDSMNTSCFDRFVNWFSYHLSNFKFTWSWDEWDSCLLLDGEHPRPKFIQEVLQKCLRLSYHQRITEMMPTTYAKLIPLTPVPNYKYANEEAANLPGTTVAHQLVVAIRQKCTPEEVVNILKDIPNSGYSGEEMSDGSFNALKIDVFVQTLLNLGSKSFSHSFAAISKFHSVFRALAETEEAQICILHNIFELWSSHQQMMVVLIDKLLKLQIVDCSAVATWIFSKEMTGEFTKLYLWEILHLTIKKMNKHVIKLNTELSEAKEKLAKADSSSSDSEDDSSHKRKKPITHADKPSEEVVERMEEKLEAANVNQKRLFLIVFQRFIMILSEHLLRSDTDGRDPDTDWYRWTIGRLQQVFLMHHEQVQKYSSTLETLLFTSDLDTHILEVFQQFVALRA
B5: Gem2 (Drosophila Gemin2), endogenous (protein, UniProt Q9VVX0 1-245)
chain: MQHEPEDQTFQLQALEICEPDSSFDPQKPPESGEEYLMHMFYERKRCPAVVTKRSSKIRNNTGNTTLEMLDNPELPPFKCLLPTPEWRDEQVKSFQAARSQVLVLRKELANNNYDQSGEPPLTSDQEKWKEFCRNQQPLLSTLLHLTQNDLELLLEMLSKWLQDPNTTVDLLHDVWLARWLYATLVCLHLPLEPHVFSTLRYIARTCIHLRNQLKEDEVQRAAPYNLLLTLTVQVFAQNDFKDYI

Biological target: T1, Smn-GFP (Drosophila Smn with eGFP fused to its C-terminal end) (Drosophila melanogaster)
Assay: affinity purification with mass spectrometry; Smn-GFP as bait on GFP-TRAP-A beads; clarified extract of 0-3 h embryos in C buffer (50 mM HEPES pH 7.4, 50 mM KCl, 1 mM MgCl2, 1 mM EGTA, 0.1% IGEPAL CA-630), 2 h at 4°C; stringent filtering against negative controls, score above 50

Molecule | binding
Lsm11, endogenous | binds
B1 | binds
B2 | binds
B3 | binds
B4 | binds
B5 | binds

Reference: paper PMC7289441
